# Measured values published in the supplement of paper PMC9135407.
# “And” between values parts separate entries of the source, which are not always exact repeats. Equal values may be shown once. Where a name gives a salt, the structure may show the parent alone. ± gives the standard deviation of the averaged measurements. The list shows a part of the results. Plates or batches differ in their baseline, so values are only roughly comparable.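 Assay uses culture-activated primary human stellate myofibroblasts; lipid droplet recovery indicates inactivation. Measured: proportion of Hoechst-counted cells over a plate-specific Bodipy cutoff, duplicate wells, DMSO and nortriptyline as per-plate negative and positive controls. A hit scores, control-normalized, above the plate's top-tenth-percentile nortriptyline wells or ranks among its three best wells. Final well concentrations not reported.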
# System: primary human hepatic stellate cells (donor 1)
# Assay: percent Bodipy-positive cells; higher = more lipid droplet accumulation
# Settings: 48 h
# Protocol: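 Primary lipid accumulation screen in primary human hepatic stellate cell myofibroblasts (donor 1, passage 8) in 384-well plates. 100 nL of library compound was pin-transferred into 30 µL medium in duplicate, and cells were treated for 48 h. The 'Scaled' score combines distance from plate baseline, toxicity and reproducibility penalties, and is normalised to nortriptyline (positive) and DMSO (negative) controls on each plate. A hit is defined as scaled >0.85 or among the top 3 wells per plate.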
# [1] = library stock concentration: 2 mM
# [2] = library stock concentration: 80 uM
# [3] = library stock concentration: 400 uM
# [4] = library stock concentration: 10 mM
# [5] = library stock concentration: 3.33 mM
# [6] = library stock concentration: 1 mM
structure (smiles),measurement,setting,value
"CNC(=O)c1cc(Oc2ccc(NC(=O)Nc3ccc(Cl)c(C(F)(F)F)c3)cc2)ccn1 [Sorafenib  (Nexavar, BAY43-9006) (2 mM)]",percent Bodipy-positive cells,[1],33.9 ± 0.61%
CNC(=O)c1cc(Oc2ccc(NC(=O)Nc3ccc(Cl)c(C(F)(F)F)c3)cc2)ccn1,percent Bodipy-positive cells,[2],14.5 ± 1.3%
same,percent Bodipy-positive cells,[3],26.6 ± 11%
same,percent Bodipy-positive cells,[1],8.44 ± 3.4%
same,percent Bodipy-positive cells,[4],81.9 ± 18%
"CNC(=O)c1cc(Oc2ccc(NC(=O)Nc3ccc(Cl)c(C(F)(F)F)c3)cc2)ccn1 [Sorafenib  (Nexavar, BAY43-9006) (0.4 mM)]",percent Bodipy-positive cells,[3],25.1 ± 7.2%
CNC(=O)c1cc(Oc2ccc(NC(=O)Nc3ccc(Cl)c(C(F)(F)F)c3)cc2)ccn1 [Sorafenib Tosylate],percent Bodipy-positive cells,[5],13.1 ± 2.7%
same,percent Bodipy-positive cells,[4],33.69 ± 0.11%
CNC(=O)c1cc(Oc2ccc(NC(=O)Nc3ccc(Cl)c(C(F)(F)F)c3)cc2)ccn1 [Sorafenib],percent Bodipy-positive cells,[5],26.4 ± 27%
same,percent Bodipy-positive cells,[4],11.7 ± 1.1%
O=C(O)CCC/C=C\C[C@@H]1[C@@H](/C=C/[C@@H](O)COc2ccccc2)[C@H](O)C[C@@H]1O [16-phenoxy tetranor Prostaglandin F2.alpha.],percent Bodipy-positive cells,[6],20.5 ± 3.5%
CNC(=O)c1ccccc1Nc1cc(Nc2ccc(N3CCOCC3)cc2OC)ncc1C(F)(F)F,percent Bodipy-positive cells,[2],4.29 ± 2.2%
same,percent Bodipy-positive cells,[3],7.08 ± 1.3%
same,percent Bodipy-positive cells,[1],3.65 ± 0.69%
same,percent Bodipy-positive cells,[4],4.77 ± 0.39%
O=C(Nc1cccc(C(=O)Nc2ccc(S(=O)(=O)O)c3cc(S(=O)(=O)O)cc(S(=O)(=O)O)c23)c1)Nc1cccc(C(=O)Nc2ccc(S(=O)(=O)O)c3cc(S(=O)(=O)O)cc(S(=O)(=O)O)c23)c1,percent Bodipy-positive cells,[4],13.3 ± 3.9%
Cc1ccc(S(=O)(=O)Cc2nc(-c3ccc(C(=O)NCc4cccnc4)cc3)oc2C)cc1,percent Bodipy-positive cells,[5],24 ± 0.99%
same,percent Bodipy-positive cells,[4],24.9 ± 1.5%
C=CC(=O)Nc1cc(Nc2nccc(-c3cn(C)c4ccccc34)n2)c(OC)cc1N(C)CCN(C)C,percent Bodipy-positive cells,[5],99.57 ± 0.6%
Cc1cn([C@H]2C=C[C@@H](CO)O2)c(=O)[nH]c1=O [Stavudine (d4T)],percent Bodipy-positive cells,[5],16 ± 11%
same,percent Bodipy-positive cells,[4],18.9 ± 0.2%
Cc1cn([C@H]2C=C[C@@H](CO)O2)c(=O)[nH]c1=O,percent Bodipy-positive cells,[4],14.3% and 30.5%
CC(=O)NS(=O)(=O)c1ccc(N)cc1 [Sulfacetamide],percent Bodipy-positive cells,library stock concentration: 9.3 mM,21 ± 12%
same,percent Bodipy-positive cells,[4],16.9% and 26.6%
CC(=O)NS(=O)(=O)c1ccc(N)cc1 [Sulfacetamide Sodium],percent Bodipy-positive cells,[5],12.1 ± 2.5%
same,percent Bodipy-positive cells,[4],19.1 ± 3.9%
CC(=O)NS(=O)(=O)c1ccc(N)cc1 [Sulfacetamide sodic hydrate],percent Bodipy-positive cells,,34.2 ± 8.7%
CCCCCCCC/C=C\CCCCCCCC(=O)N[C@@H](CO)C(=O)O [N-Oleoyl-L-Serine],percent Bodipy-positive cells,[6],14 ± 4.5%
C=C1CC[C@@H]2[C@](C)(CO)[C@H](O)CC[C@@]2(C)[C@@H]1C/C=C1/C(=O)OC[C@H]1O [Andrographolide],percent Bodipy-positive cells,[5],16.4 ± 2.6%
same,percent Bodipy-positive cells,[4],62.8 ± 5.7%
Nc1ncnc2c1nc(Br)n2C1OC2COP(=O)(O)O[C@@H]2C1O (some centres not stated) [8-Bromo-cAMP sodium],percent Bodipy-positive cells,[4],42.6 ± 3%
OCc1ccccc1O[C@@H]1O[C@H](CO)[C@@H](O)[C@H](O)[C@H]1O [Salicin],percent Bodipy-positive cells,[5],13.2 ± 5%
same,percent Bodipy-positive cells,library stock concentration: 7 mM,16.5 ± 0.71%
same,percent Bodipy-positive cells,[4],16.6% and 36.6%
CCCCCCCCCCCCC/C=C/[C@@H](O)[C@H](CO)NC(=O)CCCCC [C-6 Ceramide],percent Bodipy-positive cells,[6],11.2 ± 5.6%
COc1ccc(NS(=O)(=O)c2ccc(I)cc2)cc1N1CCN(C)CC1,percent Bodipy-positive cells,[4],41.8 ± 3%
CCc1cc(Cl)c(OC)c(C(=O)NC[C@@H]2CCCN2CC)c1O.Cl [Eticlopride hydrochloride],percent Bodipy-positive cells,[4],59.9 ± 1%
CN1C(CCl)Nc2cc(Cl)c(S(N)(=O)=O)cc2S1(=O)=O (configuration not stated) [Methyclothiazide],percent Bodipy-positive cells,[5],12.4 ± 4.6%
same,percent Bodipy-positive cells,[4],37.5 ± 19%
CN1C(CCl)Nc2cc(Cl)c(S(N)(=O)=O)cc2S1(=O)=O (configuration not stated),percent Bodipy-positive cells,[4],44.9 ± 9.9%
C=CC1=C(C(=O)O)N2C(=O)[C@@H](NC(=O)/C(=N\O)c3csc(N)n3)[C@H]2SC1 [Cefdinir],percent Bodipy-positive cells,library stock concentration: 5.1 mM,8.95 ± 1.6%
same,percent Bodipy-positive cells,[4],42.6 ± 8.7%
C=CC1=C(C(=O)O)N2C(=O)[C@@H](NC(=O)/C(=N\O)c3csc(N)n3)[C@H]2SC1,percent Bodipy-positive cells,[4],7.19 ± 2%
Nc1cc(N2CCCCC2)nc(N)[n+]1[O-] [Minoxidil],percent Bodipy-positive cells,,23.4 ± 3.2%
same,percent Bodipy-positive cells,library stock concentration: 9.6 mM,13.9% and 3.25%
"Nc1ncnc2c1ncn2[C@@H]1O[C@H](COP(=O)(O)OP(=O)(O)OP(=O)(O)OP(=O)(O)OC[C@@H]2O[C@H](n3cnc4c(N)ncnc43)C(O)[C@@H]2O)[C@H](O)C1O (some centres not stated) [P1,P4-Di(adenosine-5')tetraphosphate triammonium]",percent Bodipy-positive cells,[4],49.6 ± 1.2%
CS(=O)(=O)Nc1c(O)ccc2c1CCCC2C1=NCCN1 (configuration not stated),percent Bodipy-positive cells,[4],10.44 ± 0.037%
COc1ccc2cc([C@H](C)C(=O)O)ccc2c1 [(S)-Naproxen],percent Bodipy-positive cells,[6],6.95 ± 2.1%
COc1ccc2cc([C@H](C)C(=O)O)ccc2c1 [(-)-Naproxen sodium],percent Bodipy-positive cells,[4],44.1 ± 12%
COc1ccc2cc([C@H](C)C(=O)O)ccc2c1 [Naproxen sodium],percent Bodipy-positive cells,[4],7.2 ± 1.4%
COc1ccc2cc([C@H](C)C(=O)O)ccc2c1,percent Bodipy-positive cells,[4],8.61 ± 2%
COc1ccc2cc([C@H](C)C(=O)O)ccc2c1 [Naproxen],percent Bodipy-positive cells,,27.6 ± 1.4%
same,percent Bodipy-positive cells,[5],6.48 ± 3.1%
same,percent Bodipy-positive cells,library stock concentration: 8.7 mM,7.51 ± 2.1%
same,percent Bodipy-positive cells,[4],16.9 ± 1.7%
CC(C)CN1CCC(CNCc2ccc(C#CC(C)(C)O)s2)CC1,percent Bodipy-positive cells,[4],76.1 ± 8.1%
C[C@]12CCC(=O)C=C1[C@@H]1C[C@@H]1[C@H]1[C@@H]3[C@@H]4C[C@@H]4[C@@]4(CCC(=O)O4)[C@@]3(C)CC[C@@H]12,percent Bodipy-positive cells,[4],53.8 ± 17%

# 3 entries drawn at random from the list so far:
structure (smiles),measurement,setting,value
COc1ccc(NS(=O)(=O)c2ccc(I)cc2)cc1N1CCN(C)CC1,percent Bodipy-positive cells,[4],41.8 ± 3%
CC(=O)NS(=O)(=O)c1ccc(N)cc1 [Sulfacetamide sodic hydrate],percent Bodipy-positive cells,,34.2 ± 8.7%
C=CC1=C(C(=O)O)N2C(=O)[C@@H](NC(=O)/C(=N\O)c3csc(N)n3)[C@H]2SC1 [Cefdinir],percent Bodipy-positive cells,[4],42.6 ± 8.7%
